In all, about 340,000 compounds went through this assay and about 6,200 (1.8%) were called active. Inconclusive means that the source gave no clear call. Such entries were picked first, then a sample of the others. Calls follow the shape of the dose curve; as a rule, active = well fitted activation curve with a large enough effect; inconclusive = small, poorly fitted or top-dose-only effect; inactive = no such curve, though single readings can be large or run the other way. A potency beside an inconclusive call is a rough fit, not a confirmed value.
assay: A quantitative high throughput screen for small molecules that induce DNA re-replication in SW480 colon adenocarcinoma cells.; also: nearly all actives have a fitted effect of over 55% in size; as to re-replication activation: % of control where 0% means no effect; settings: Hoechst DNA content imaging, 48 h; re-replication activation: at 46.1 µM (top of the series) unless noted
Method in brief: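 Treated cells incubate 48 hr (37 C, 5% CO2), are stained 40 min with Hoechst, and nuclear fluorescence is enumerated; a rise in nuclei with high DNA signal marks re-replication.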
Potency is read from the fitted curve at half-maximal effect.

Q: For O=C1c2ccccc2C(=O)N1CCCCSc1nc2ccccc2o1, which Potency is on record?
A: inactive

Q: With O=C(NN=C1C2CC3CC(C2)CC1C3)c1cccc(S(=O)(=O)N2CCOCC2)c1 as the compound, how does the Potency read?
A: inconclusive: 0.0326 µM [activator, full curve, poor fit]

Q: For CCOC(=O)/C(C#N)=C/c1cc2ccccc2nc1Cl, which Potency is on record?
A: inconclusive: 18.4 µM [activator, single point]

Q: For O=C(NC1CCN(C(=O)N2c3ccccc3Sc3ccccc32)CC1)c1ccco1, which Potency is on record?
A: inconclusive: 20.6 µM [activator, partial curve, poor fit]

Q: With O=C1NC(c2ccc(Br)cc2)=N/C1=C/c1ccco1 as the compound, how does the Potency read?
A: inconclusive: 18.4 µM [activator, partial curve, poor fit]

Q: Which Potency does the source give for CCN(CC(=O)NCc1ccco1)S(=O)(=O)c1ccc(F)cc1 here?
A: inconclusive: 16.4 µM [activator, single point]

Q: Which Potency does the source give for COc1ccccc1C1N=C(c2ccccc2C)NO1 (centres undefined) here?
A: inactive

Q: Which Potency does the source give for Cc1cc(C)cc(C(=O)NCC(=O)OCC(=O)Nc2ccc(C)cc2Br)c1 here?
A: inactive

Q: With O=C1Nc2ccccc2SC1c1ccccc1Cl (centres undefined) as the compound, how does the Potency read?
A: inconclusive: 18.4 µM [activator, single point]

Q: For COc1cc(OC)c(C(=O)/C=C/c2ccccc2)c(O)c1O, which Potency is on record?
A: inconclusive: 23.1 µM [activator, partial curve, poor fit]

Q: Which Potency does the source give for O=C(c1ccco1)n1nc(-c2cccnc2)nc1NCc1ccco1 here?
A: inactive

Q: With COc1ccc(-c2sc3ccc(OC)cc3c2-c2ccc(OCCN3CCOCC3)cc2)cc1 as the compound, how does the Potency read?
A: inconclusive: 6.51 µM [activator, single point]

Q: With Nc1c(C(=O)Nc2cccc(Cl)c2Cl)sc2nc(-c3cccnc3)ccc12 as the compound, how does the Potency read?
A: active: 9.2 µM

Q: Which Potency does the source give for CC1CN(c2nc(-c3ccc(Br)cc3)nnc2-c2ccccc2)CC(C)N1 (centres undefined) here?
A: inactive

Q: For COc1ccc(CCNC(=S)NC(=O)c2cccc(Cl)c2)cc1OC, which Potency is on record?
A: inconclusive: 29.1 µM [activator, partial curve, poor fit]

Q: Which Potency does the source give for CC1CN(CCCCOc2ccc(Cl)c3ccccc23)CC(C)O1 (centres undefined) here?
A: inconclusive: 23.1 µM [activator, partial curve, poor fit]

Q: For Fc1c(F)c(F)c(/C=N/NC(=S)Nc2cccnc2)c(F)c1F, which Potency is on record?
A: inconclusive: 9.2 µM [activator, partial curve]

Q: With COc1ccc(N2CC(C(=O)N3CCCC(C)C3)CC2=O)cc1 (centres undefined) as the compound, how does the Potency read?
A: active: 18.4 µM

Q: Which Potency does the source give for O=C(Nc1nc2ccccc2s1)c1cnccn1 here?
A: active: 14.6 µM

Q: For CCOc1ccc(Cn2c3ccc(OC)cc3c3nc4ccccc4nc32)cc1OC, which Potency is on record?
A: inconclusive: 20.6 µM [activator, partial curve, poor fit]

Q: For Cc1cc2cc(C#N)c(NCCNC(=S)NCCCN3CCOCC3)nc2cc1C, which Potency is on record?
A: active: 16.4 µM

Q: Which Potency does the source give for O=C(CN1CCN(c2cccc(Cl)c2)CC1)NC1CCCc2ccccc21 (centres undefined) here?
A: inactive

Q: Which Potency does the source give for COc1ccc(NC(=O)CCN2CCN(c3ccc(F)cc3)CC2)cc1 here?
A: inactive

Q: With COc1ccc(NC(=O)C2CC3C=CC2C3)c([N+](=O)[O-])c1 (centres undefined) as the compound, how does the Potency read?
A: inactive

Q: With Cc1ccc2cc(-c3noc(C(C)(C)C)n3)c(=O)[nH]c2c1 as the compound, how does the Potency read?
A: inactive

Q: With Cc1cccc(NC(=S)N/N=C/c2cccc(O)c2)c1C as the compound, how does the Potency read?
A: active: 7.31 µM

Q: For Oc1ccc(-c2c(-c3ccsc3)sc3ccccc23)cc1, which Potency is on record?
A: inconclusive: 0.0651 µM [activator, full curve, poor fit]

Q: With CN(C(=O)COC(=O)/C=C/c1ccc(C(F)(F)F)cc1)C1CCS(=O)(=O)C1 (centres undefined) as the compound, how does the Potency read?
A: inactive

Q: Which Potency does the source give for CC(C)(C)c1ccc(-n2ncc3c2CCCC3NC(=O)c2cnccn2)cc1 (centres undefined) here?
A: inconclusive: 5.8 µM [activator, single point]

Q: Which Potency does the source give for N#CCCn1cc(C=C(C#N)C#N)c(-c2ccc(-c3ccccc3)cc2)n1 here?
A: inconclusive: 20.6 µM [activator, single point]

Q: Which Potency does the source give for O=C(N/N=C/c1cccs1)c1ccc2nc[nH]c2c1 here?
A: inactive

Q: With O=C(c1ccc(Cn2c(=S)[nH]c3ccccc3c2=O)cc1)N1CCN(c2ccccn2)CC1 as the compound, how does the Potency read?
A: inconclusive: 20.6 µM [activator, partial curve, poor fit]

Q: With Cc1cc(Nc2ccccc2)nc2cc(O)ccc12 as the compound, how does the Potency read?
A: inconclusive: 20.6 µM [activator, single point]

Q: With Cc1onc(-c2c(F)cccc2Cl)c1C(=O)N[C@@H]1C(=O)N2C(C(=O)O)C(C)(C)S[C@H]12 (some centres undefined) as the compound, how does the Potency read?
A: inconclusive: 0.231 µM [activator, single point]

Q: For c1ccc(C2=NN(c3ccccc3)CC2)cc1, which Potency is on record?
A: active: 16.4 µM

Q: Which Potency does the source give for O=C(CSc1nc2ccccc2nc1N1CCCC1)Nc1ccc(Cl)cc1 here?
A: inactive

Q: Which Potency does the source give for COc1cc(C(=S)N2CCCC2)ccc1OCC(N)=O here?
A: inconclusive: 16.4 µM [activator, partial curve, poor fit]

Q: For CCCCCn1c(=S)[nH]c2ncccc2c1=O, which Potency is on record?
A: inactive

Q: Which Potency does the source give for O=c1[nH]c(Cc2ccc(Cl)cc2)nc2ccccc12 here?
A: inactive

Q: With Cc1ccc2c(c1)C(=O)N1[C@H]3c4cc(C)ccc4OC[C@@H]3[C@H](c3ccccc3)[C@]1(C)C(=O)N2 as the compound, how does the Potency read?
A: inconclusive: 14.6 µM [activator, partial curve, poor fit]

Q: With CCOC(=O)c1csc(NC(=O)c2cc(-c3ccccn3)nc3ccccc23)n1 as the compound, how does the Potency read?
A: inconclusive: 1.03 µM [activator, full curve, poor fit]

Q: With CC(C)c1cc(C(N)=O)c(NC(=O)c2cccc(COc3ccc(Cl)cc3)c2)s1 as the compound, how does the Potency read?
A: inconclusive: 18.4 µM [activator, single point]

Q: With CCCCC(C(=O)OCC)C(N)Cc1ccc(F)cc1 (centres undefined) as the compound, how does the Potency read?
A: inactive

Q: For CCCCN(C)S(=O)(=O)c1ccc(C(=O)Nc2nnc(-c3ccco3)o2)cc1, which Potency is on record?
A: active: 13 µM

Q: With COc1ccccc1CC(=O)NC1CCCCCC1 as the compound, how does the Potency read?
A: inactive

Q: Which Potency does the source give for Cc1cccc(/C=C/c2onc(C)c2S(=O)(=O)N2CCC(C(=O)N3CCCCCC3)CC2)c1 here?
A: inconclusive: 29.1 µM [activator, single point]

Q: For Cc1nnc(SCC(=O)Nc2nccs2)n1N, which Potency is on record?
A: inconclusive: 29.1 µM [activator, single point]

Q: For NC(=O)c1ccc(Oc2ccc3c(c2)CCC3)c([N+](=O)[O-])c1, which Potency is on record?
A: inactive

Q: For COc1ccc(N2CC(C(=O)OCC(=O)c3ccc(C)cc3)CC2=O)cc1 (centres undefined), which Potency is on record?
A: inconclusive: 18.4 µM [activator, single point]

Q: With COc1ccc(CN2CSC(=S)N(Cc3ccccc3)C2)cc1 as the compound, how does the Potency read?
A: inconclusive: 18.4 µM [activator, partial curve, poor fit]

Q: Which Potency does the source give for CCN(CC)c1ccc(NC(=O)c2cnc3ccccn3c2=O)c(C)c1 here?
A: inactive

Q: Which Potency does the source give for S=C(NCc1ccco1)Nc1cccc(Cl)c1 here?
A: inconclusive: 29.1 µM [activator, single point]

Q: For CCC(=O)Nc1cc2nn(-c3ccc(C)cc3)nc2cc1C, which Potency is on record?
A: inactive

Q: Which Potency does the source give for CC(C)CN1C(=O)CC(Sc2ccccc2C(=O)O)C1=O (centres undefined) here?
A: inconclusive: 29.1 µM [activator, single point]

Q: Which re-replication activation does the source give for COc1ccc(CNC(=O)COC(=O)CO/N=C(\C)c2ccc3c(c2)OCO3)cc1 here?
A: inconclusive: 18.8% [activator]

Q: Which Potency does the source give for COc1ccccc1-n1c(=O)oc2ccc(Cl)cc2c1=O here?
A: inactive

Q: With CCCCc1cc(=O)oc2cc(C)cc(OCC(=O)N3C[C@H]4C[C@@H](C3)c3cccc(=O)n3C4)c12 as the compound, how does the Potency read?
A: active: 1.84 µM

Q: For CSc1ccc(C(c2c(C(=O)O)[nH]c3ccccc23)c2c(C(=O)O)[nH]c3ccccc23)cc1, which Potency is on record?
A: inconclusive: 0.116 µM [activator, full curve, poor fit]

Q: With O=C(O)c1ccc2c(=O)n(-c3ccc(F)c(Cl)c3)c(=S)[nH]c2c1 as the compound, how does the Potency read?
A: inactive

Q: Which Potency does the source give for O=C(COc1ccccc1)NCc1ccc(-n2cccc2)cc1 here?
A: inconclusive: 2.91 µM [activator, single point]

Q: Which Potency does the source give for O=C(O)CCC(=O)Nc1ccc(S(=O)(=O)c2ccc(NC(=O)CCC(=O)O)cc2)cc1 here?
A: inconclusive: 0.651 µM [activator, full curve, poor fit]

Q: Which Potency does the source give for CS(=O)(=O)N1CCC(C(=O)NCC2CCCO2)CC1 (centres undefined) here?
A: inconclusive: 29.1 µM [activator, single point]

Q: For CCOC(=O)C1(C)NC(c2cccs2)C2C(=O)N(c3ccc(OC)cc3)C(=O)C21 (centres undefined), which Potency is on record?
A: inconclusive: 29.1 µM [activator, single point]

Q: For CSc1nc(SCC(=O)NC(c2ccccc2)c2ccccc2)c2c3c(sc2n1)CN(C)CC3, which Potency is on record?
A: active: 5.8 µM

Q: For CCCC(=O)NC(=S)Nc1ccc(NC(=O)C(C)C)c(OC)c1, which Potency is on record?
A: inconclusive: 0.146 µM [activator, full curve, poor fit]

Q: Which Potency does the source give for CCOc1cc(C2NN=C(c3ccccc3)S2)ccc1OCc1ccc(F)cc1 (centres undefined) here?
A: inactive

Q: With COC(=O)c1ccc(COC(=O)CNC(=O)c2ccc(C)s2)cc1 as the compound, how does the Potency read?
A: inactive

Q: For COC(=O)c1ccccc1NC(=O)c1cc(-c2cccs2)on1, which Potency is on record?
A: inconclusive: 16.4 µM [activator, partial curve, poor fit]

Q: With O=C(NCc1ccco1)Nc1ccc(Br)cc1Cl as the compound, how does the Potency read?
A: inconclusive: 18.4 µM [activator, single point]

Q: With CCc1cccc(C)c1NS(=O)(=O)c1cc(Br)cnc1N as the compound, how does the Potency read?
A: inconclusive: 29.1 µM [activator, single point]

Q: For c1ccc(C(c2ccccc2)N2CCN(c3ccc4ccccc4n3)CC2)cc1, which Potency is on record?
A: inactive

Q: With CCOc1c(C)cnc2c1c(=O)n(Cc1ccc(Cl)cc1)c(=O)n2C as the compound, how does the Potency read?
A: inconclusive: 0.326 µM [activator, full curve, poor fit]

Q: For O=C(c1ccccc1)c1ccccc1N1C(=O)C=CC1=O, which Potency is on record?
A: inconclusive: 5.8 µM [activator, full curve]

Q: With CCc1ccc(N2CC(C(=O)OCC(=O)Nc3ccc([N+](=O)[O-])cc3)CC2=O)cc1 (centres undefined) as the compound, how does the Potency read?
A: inactive

— PubChem BioAssay AID624297 (National Center for Advancing Translational Sciences (NCATS), 2012)
